In patent US5525495:
For at least one entry, the source does not settle the construct or the ends of the probe. Where cells or extracts were used, other partners may take part.

Protein sequences, listed by entry. Tags and fused reporters are not part of them. Lines headed by an entry give the natural chain unless they say otherwise; changes in a name come on top. Chains listed by the source or under a name are the forms on record and can include a tag or linker.
UniProt Q12926, other isoform, or with tags, fused parts or gaps: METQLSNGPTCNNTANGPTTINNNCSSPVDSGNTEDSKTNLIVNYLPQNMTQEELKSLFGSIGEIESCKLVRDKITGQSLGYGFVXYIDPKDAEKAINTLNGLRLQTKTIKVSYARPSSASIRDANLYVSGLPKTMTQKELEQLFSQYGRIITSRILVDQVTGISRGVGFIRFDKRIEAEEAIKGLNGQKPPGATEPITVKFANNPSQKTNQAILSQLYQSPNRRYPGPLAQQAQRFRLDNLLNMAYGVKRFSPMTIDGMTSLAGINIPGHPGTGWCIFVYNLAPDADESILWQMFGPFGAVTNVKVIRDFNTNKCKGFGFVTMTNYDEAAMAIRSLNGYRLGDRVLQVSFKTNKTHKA

These sequences were tested against Hel-N2 (deltaHel-N1) deletion of 13-aa segment between RRM2 and RRM3 (FIG. 10) (Homo sapiens) (UniProt Q12926) (assay: SELEX). Details: high salt and urea washes; protein in a lysate after overexpression.

Selection result, selected:
AACCCAUCCAUUUUAUUUUUCUUUCGUUGUUG [FIG. 11 Hel-N2 selected RNA], ACACCCUAGUUUUGUUUUUUAAGUU [FIG. 11 Hel-N2 selected RNA], ACGUUCUACUCCUAAUUUGAUUUUAGUU [FIG. 11 Hel-N2 selected RNA], AGAGUUGCCAAAAUCUUAUAUUUUUUUGGUU [FIG. 11 Hel-N2 selected RNA], AGCGUAUUGUUUUAUUUAAAUUUUUG [FIG. 11 Hel-N2 selected RNA], AUUAUACUUUUUACACACAUUAUUGC [FIG. 11 Hel-N2 selected RNA], AUUAUUAUUUUGUAUUGUUUUUUAAAUC [FIG. 11 Hel-N2 selected RNA], AUUUACUUUCGUAUUUUUAUUUUAAAG [FIG. 11 Hel-N2 selected RNA], AUUUAUAUAGUUUUUUUUAAUUUCG [FIG. 11 Hel-N2 selected RNA], AUUUAUUUUAUGUUCUCGAUUCUA [FIG. 11 Hel-N2 selected RNA], AUUUAUUUUGAUUUUAAGUAUGUAUCUU [FIG. 11 Hel-N2 selected RNA], AUUUAUUUUUAUUUUUCUUAAGUUACUC [FIG. 11 Hel-N2 selected RNA], AUUUGAUUUACAUUCGUUUCAUUAU [FIG. 11 Hel-N2 selected RNA], AUUUGUUUUUUGUUUUUCAUUUUAGUCC [FIG. 11 Hel-N2 selected RNA], AUUUUAGUUAGCGCUUUUCGAAUUUG [FIG. 11 Hel-N2 selected RNA], AUUUUAUUUAGUUUAGCCACCGUUUAU [FIG. 11 Hel-N2 selected RNA], CGAACCCGGAUCUUUGUUUUAUUGAGUU [FIG. 11 Hel-N2 selected RNA], CGUAUUUUAUUGUUUUAUUUGAAGUU [FIG. 11 Hel-N2 selected RNA], GUCCCAAAUCAGUUUUUCUUUUAUUGUU [FIG. 11 Hel-N2 selected RNA], UUCCACCAUAAACUGUUUUAUUUACGUU [FIG. 11 Hel-N2 selected RNA]

The sequences below were run against Hel-N1 (Homo sapiens) (UniProt Q12926) (assay: SELEX). Details: 3 rounds; protein in a lysate after overexpression.

Selection result, selected:
AACUACCGGAGUACAGAUUUUUUUA [FIG. 3 selected RNA], ACACCCUUUUUAGUUCCUGUAUUU [FIG. 3 selected RNA], AGACGCAAUUAAUGAUUUGUUUUUA [FIG. 3 selected RNA], AUCAUAAAUUCAGUGUCAUUUUUCU [FIG. 3 selected RNA], AUGAUUUAGAUUUUCGCACAUUUCA [FIG. 3 selected RNA], AUUGACUUCGUUAUUGUUUUUAUUG [FIG. 3 selected RNA], AUUUCUCAUUUAACGUCUCUCCUUU [FIG. 3 selected RNA], CACAACCCUAACUUUCAUUUGCUUU [FIG. 3 selected RNA], CUAAUUUCCGAUAUUAAAGCUUAUUA [FIG. 3 selected RNA], GGGCUAGGCUUAUCCUCCUUUCC [FIG. 3 selected RNA], UACUUUCGGUACUAAAAUCGAUCAG [FIG. 3 selected RNA], UAGCUCGGACAUUUAUUUUUAUUU [FIG. 3 selected RNA], UCAGUGGCAUCUCUUUCUUUACUUU [FIG. 3 selected RNA], UCAGUUAAACGUGUAAACCUUUUAA [FIG. 3 selected RNA], UCAUAGCACCACCUCACCCUUUUUA [FIG. 3 selected RNA], UCCAGUAACCCCACCUCCUCUUUUU [FIG. 3 selected RNA], UCCUUUUUGUACCACUCUCAGUUGU [FIG. 3 selected RNA], UGACCGAUACACAUUCUUUUAUUUA [FIG. 3 selected RNA], UUAGGUUUCUUUUUAUUUGAGCAUA [FIG. 3 selected RNA], UUAUUUAUUUGCGUCUCCUUUAUUA [FIG. 3 selected RNA], UUGAUUUUCGCGCCCGCCGCCUUAG [FIG. 3 selected RNA], UUUAGUUUAAUAGGGAUAAUACUUA [FIG. 3 selected RNA], UUUGUUUUCGUGUAACGCAUAUACU [FIG. 3 selected RNA]

Same assay, conditions: high salt and urea washes; protein in a lysate after overexpression

Selection result, selected:
AGUCAGUUUUAUUUUAGGCCUUCC [FIG. 11 Hel-N1 selected RNA], AUUUACUUUAGACACUUUAAUUUG [FIG. 11 Hel-N1 selected RNA], AUUUCCGUUUUGCCACUUUCUUUUC [FIG. 11 Hel-N1 selected RNA], AUUUUUAAUUUUAAUUUUAGCUGUA [FIG. 11 Hel-N1 selected RNA], CCCCAAUUUUAUUGUUUCAUUUUAA [FIG. 11 Hel-N1 selected RNA], GAAUGGCAUUUAUUUUGACGAA [FIG. 11 Hel-N1 selected RNA]

Same assay, conditions: selected from brain mRNA 3'-UTR library; protein in a lysate after overexpression

Selection result, selected:
AACCAUUUUCAUAUAAUUUUAUCAUACUGUAUCUGCAAACUUUUAUGUCCUGCUUUUCCCUUGAAUAUUGUGUCAUAAGCAUUUAAAAAAA [GRP-23], ACAAAUGGUAGGCAAAAAAAGAUAUCGCAGUAAGGCCCUCCGUGAUUCACUUCAUAUGUUUAUGUAUUGGUUGAAUUAUUUAUGUAAAAAAAAAAAAAAAAA [GRP-1], ACUGUUUUCCCACCAGCCUGUUGGCGAAGUUGCUGCUCCGGCAUUCAGUACCUGCUUCUUCCUGUGAAAUAAAGUUAGUUUCUAUUUUAUGUUAAAAAAAAAAAAAAAAA [GRP-9 (ACK tyrosine kinase)], AGGCAAAAAAGAUAUGCAGGAAGGCCCUCCGAGAUUCACUUCAUAUGUUUAUGUAUUGGUUGAAUUAUUUUUGUAAUUUUAAAAAAAAAAAAAAAAAAAAAAAAAAAAAAAAAA [GRP-14'], AUGAGCUUUACUCAAUAAAGCUGGCUUUCCCUGCAAAAAAAAAAAAAAAAAAAAAAA [GRP-3], AUGGACUAUCAGAAAUAGACACAGAUUUGGGUCACAAAGCUGGCUCUGUAUUUGCAUUUUAUUUUUGUGUUCUUGUCAGUUUGGGAAUGAUUAAUAUUAAAAAAAAAAAAAAA [GRP-14], AUGUCUAACUUUUAAUAUGCUUGUUCAGCUCUAAUAAAGUAAUAAAGCUUGGUUGUCAGUAUAAAAAAAAAAAAAAAAAAAAA [GRP-2], AUGUCUUGAUGUUAUGCAGGAAGUACAGACAUACUUUAAAUUUUGUUAUGAAAAAAAAAAAAAAAAAAAAAAAAAAAAAAAAAAA [GRP-5'], CAAGGAGCAUAAGAGAUGUUCUCGUAGCUCUGCGUUGUGUGAAAUGUCCAUCUUAGUUUUGUUAAAAAAAAAAAAAAAAAAAAAAAAAAAAA [GRP-5], CAAUCCUGAUGCAAGAGAAGCCAAUGAUGGGCUCAUUUCGAACUGUGUUAUAUUAUUUAGGAAAAAAAAAAAAAAA [GRP-8'], CAUGUUUUCCCACCAGCCUGUUGGCGAAGUUGCUGCUCCGGCAUUCAGUACCUGCUUCUUCCUGUGAAAUAAAGUUAGUUUCUAUUUUAUGUUAAAAAAAAAAAAAAAA [GRP-6' (ACK tyrosine kinase)], CCGUUCCAUGAGCCACUCAAUAUCCUUCCAAAUAAUUUUUUUCUAAGUUAACCAUUCUUUUGUUUUUCUAAGUUAACCAUUCUUUUGUUGUUUGAAAAAAAAAAAAAAA [GRP-7], GGCUGCCUUAUAAUUUUUGUCUCUUUCUUUCCCACCUUUAAUUGUCAAUGGUUAAAAAAAUGCUGUUUUCUGAUAUUAAAUUUUUAUUAGUGCAUACCUUAAAAAAAAA [GRP-16], GGUAGGCAAAAAAAGAUAUCGCAGGAAGGCCCUCCGUGAUUCACUUCAUAUGUUUAUGUAUUGGUUGAAUUAUUUUUGUAAUUUUAAAAAAAAAAAAAAAAAAAAAAAA [GRP-8], GUGCAGUGUACCACAUUUUCUUUAUCCAGUCUAUCAUUGAUGGACAUUAAAGGUUGAUUGAUGCAAAAAAAAAAAAAAAAAAA [GRP-21], GUUUGUUGUUUUUCUAUUAAACUGCAUAAAGAAACGGCAAAAAAAAAAAAAAAAAAA [GRP-1'], UAUAUGCGUUAAUAUUUCUUUCCAUCUGUGGAUUGUUCUGUCACUUAUUUUCUUUAAUAAAUGGGUUUCUGAAAAAAAAAAAAAAAAAAAAAAAAAA [GRP-10'], UAUCAAAUACCAAGUUUAUUUCACAAACACUAGGAAGAUGGGUUGAGGGUGGG [GRP-15'], UCUUGAUGUUAUGCAAGUACAGACGUACUUUAAAUUUUUGUUAUGAAAAAAAAAA [GRP-7'], UUCCAUGCCCUGUUUUAUUUUCUACUUUAUUGCCCCUGUUCCCCAGGCACAAAGCUAUGUGCUGACAUACAUUUGGCUCUCAAUAAUACUUGUCAUAUUUGAAAAAAAAAAAAAA [GRP-24], UUUUAAUUUACAUUUUUAUUUAUUUUGUAAUUAUGAUUUGGGUUGGGGAAGGGGGGGGCUACAUUAUAAACGCUUAGGAAUUCGAGCUCGGUACCC [GRP-2']
